In PMC4811514, “MULTIMERIN2 binds VEGF-A primarily via the carbohydrate chains exerting an angiostatic function and impairing tumor growth” (Oncotarget, 2015) one finds binding data, which are given here for one substance.

What all share (assay): ELISA; solid phase: 0.5 μg of recombinant MMRN2 or deletion mutants coated on the plate, blocked with 2% BSA in PBS; soluble VEGF-A (100 ng/well) or other cytokines in 0,2% BSA in PBS for 1 hour at 37°C; detected with specific anti-cytokine antibodies, ABTS, absorbance at 405 nm; both purified
One experiment concerns the target T1, MMRN2 Δ2 deletion mutant (UniProt Q9H8L6).
T1 sequence (chain, glycosylated (carbohydrate chains)): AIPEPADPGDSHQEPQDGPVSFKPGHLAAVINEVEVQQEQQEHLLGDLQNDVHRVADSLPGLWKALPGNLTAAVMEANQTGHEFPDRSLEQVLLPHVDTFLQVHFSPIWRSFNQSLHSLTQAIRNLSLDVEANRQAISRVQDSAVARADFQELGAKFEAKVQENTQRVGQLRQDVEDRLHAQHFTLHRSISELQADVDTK

The target of a further experiment is T2, MMRN2 Δ4 deletion mutant (UniProt Q9H8L6).
T2 sequence: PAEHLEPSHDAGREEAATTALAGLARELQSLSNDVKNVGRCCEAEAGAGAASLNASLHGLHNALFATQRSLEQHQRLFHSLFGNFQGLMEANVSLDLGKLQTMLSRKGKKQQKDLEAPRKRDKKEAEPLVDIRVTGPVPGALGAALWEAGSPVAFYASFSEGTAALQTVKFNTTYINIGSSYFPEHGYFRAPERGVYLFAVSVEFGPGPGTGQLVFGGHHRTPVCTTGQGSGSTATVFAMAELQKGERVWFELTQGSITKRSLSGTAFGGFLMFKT

The next experiment addresses T3, MMRN2 Δ3 deletion mutant (UniProt Q9H8L6).
T3 sequence: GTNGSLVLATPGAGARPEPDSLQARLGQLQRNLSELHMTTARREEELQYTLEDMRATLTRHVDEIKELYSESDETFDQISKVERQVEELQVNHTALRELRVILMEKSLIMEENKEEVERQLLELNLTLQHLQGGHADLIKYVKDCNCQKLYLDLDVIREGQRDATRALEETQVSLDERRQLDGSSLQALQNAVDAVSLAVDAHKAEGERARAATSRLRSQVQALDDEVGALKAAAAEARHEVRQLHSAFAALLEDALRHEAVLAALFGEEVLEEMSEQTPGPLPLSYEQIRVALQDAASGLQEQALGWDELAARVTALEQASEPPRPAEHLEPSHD

For experiment [1], the target named is T4, MMRN2 Δ2 deletion mutant produced in the presence of tunicamycin (UniProt Q9H8L6).
T4 sequence (chain, N-linked glycosylation prevented by tunicamycin): T1 sequence (chain, glycosylated (carbohydrate chains))

The next experiment deals with T5, MMRN2 Δ1 deletion mutant (UniProt Q9H8L6).
T5 sequence: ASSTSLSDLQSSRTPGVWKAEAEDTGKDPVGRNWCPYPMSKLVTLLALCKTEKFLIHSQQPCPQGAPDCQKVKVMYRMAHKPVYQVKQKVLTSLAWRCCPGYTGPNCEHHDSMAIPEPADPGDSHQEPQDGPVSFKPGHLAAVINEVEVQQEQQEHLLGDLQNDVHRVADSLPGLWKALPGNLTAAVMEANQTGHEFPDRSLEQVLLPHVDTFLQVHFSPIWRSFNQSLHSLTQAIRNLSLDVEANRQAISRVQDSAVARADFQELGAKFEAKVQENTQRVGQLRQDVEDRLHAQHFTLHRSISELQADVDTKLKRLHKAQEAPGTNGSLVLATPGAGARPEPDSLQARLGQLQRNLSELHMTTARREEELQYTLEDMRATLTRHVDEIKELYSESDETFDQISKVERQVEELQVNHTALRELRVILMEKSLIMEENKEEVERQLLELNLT

Results are given in words; binding and its absence hold for the method and conditions named. For some assays here: Binding calls can cover weak binding; strength is not graded here. For some assays here: Sequences can lack the tags named with a protein.

Take VEGF-A165 (human) (ligand): the binding result in the experiment with MMRN2 Δ2 deletion mutant was “binds”; with MMRN2 Δ4 deletion mutant, “no binding (tested: 100 ng/well)”; with MMRN2 Δ3 deletion mutant it was “no binding (tested: 100 ng/well)”; in experiment [1], “no binding (tested: 100 ng/well)”; with MMRN2 Δ1 deletion mutant, “binds”.
